Measured values taken from patent US20240132883A1, “RNA-TRIGGERED PROTEIN CLEAVAGE AND APPLICATIONS BY THE CRISPR CAS7-11-CSX29 COMPLEX” (Massachusetts Institute of Technology, published 2024).
Results are given in words; binding and its absence hold for the method and conditions named. Some results given as binding are weak or reduced against the parent protein; the word gives no strength. Tags and fused reporters may be left off the sequences shown.

Columns and labels:
[1] = molecular target: catalytically inactive D. ishimotonii Cas7-11 mutant (D429A/D654A), expressed as MBP-Cas7-11-His6 (Desulfonema ishimotonii); assay: cryo-EM structure of Cas7-11-crRNA-Csx29
[2] = molecular target: catalytically inactive D. ishimotonii Cas7-11 mutant (D429A/D654A), expressed as MBP-Cas7-11-His6 (Desulfonema ishimotonii); assay: cryo-EM structures of Cas7-11-crRNA-Csx29 with and without target RNA

B1: D. ishimotonii Csx29, expressed as His6-Twin-Strep-SUMO-Csx29 (enzyme, not shown: large carriers)
chain: HHHHHHMSNPIRDIQDRLKTAKFDNKDDMMNLASSLYKYEKQLMDSSEATLCQQGLSNRPNSFSQLSQFRDSDIQSKAGGQTGKFWQNEYEACKNFQTHKERRETLEQIIRFLQNGAEEKDADDLLLKTLARAYFHRGLLYRPKGFSVPARKVEAMKKAIAYCEIILDKNEEESEALRIWLYAAMELRRCGEEYPENFAEKLFYLANDGFISELYDIRLFLEYTEREEDNNFLDMILQENQDRERLFELCLYKARACFHLNQLNDVRIYGESAIDNAPGAFADPFWDELVEFIRMLRNKKSELWKEIAIKAWDKCREKEMKVGNNIYLSWYWARQRELYDLAFMAQDGIEKKTRIADSLKSRTTLRIQELNELRKDAHRKQNRRLEDKLDRIIEQENEARDGAYLRRNPPCFTGGKREEIPFARLPQNWIAVHFYLNELESHEGGKGGHALIYDPQKAEKDQWQDKSFDYKELHRKFLEWQENYILNEEGSADFLVTLCREIEKAMPFLFKSEVIPEDRPVLWIPHGFLHRLPLHAAMKSGNNSNIEIFWERHASRYLPAWHLFDPAPYSREESSTLLKNFEEYDFQNLENGEIEVYAPSSPKKVKEAIRENPAILLLLCHGEADMTNPFRSCLKLKNKDMTIFDLLTVEDVRLSGSRILLGACESDMVPPLEFSVDEHLSVSGAFLSHKAGEIVAGLWTVDSEKVDECYSYLVEEKDFLRNLQEWQMAETENFRSENDSSLFYKIAPFRIIGFPAE
[1]
  binding: binds
[2]
  binding: binds
